Patent publication US20190062395A1 (MEDICENNA THERAPEUTICS, published 2019)
No constants are given. Whether binding was seen depends on the method and setting. Some binding calls cover weakened binding; strength is not graded here.

T1: IL-13Rα1
T1 sequence: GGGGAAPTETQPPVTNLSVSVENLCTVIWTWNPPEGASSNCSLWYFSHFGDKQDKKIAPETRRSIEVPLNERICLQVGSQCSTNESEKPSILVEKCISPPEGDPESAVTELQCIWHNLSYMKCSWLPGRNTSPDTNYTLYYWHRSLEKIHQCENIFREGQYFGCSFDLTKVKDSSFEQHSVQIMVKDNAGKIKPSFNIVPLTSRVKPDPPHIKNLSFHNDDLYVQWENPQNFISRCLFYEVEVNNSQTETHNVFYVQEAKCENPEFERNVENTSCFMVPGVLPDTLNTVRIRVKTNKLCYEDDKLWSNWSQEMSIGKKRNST

T2: IL-13Rα2
T2 sequence: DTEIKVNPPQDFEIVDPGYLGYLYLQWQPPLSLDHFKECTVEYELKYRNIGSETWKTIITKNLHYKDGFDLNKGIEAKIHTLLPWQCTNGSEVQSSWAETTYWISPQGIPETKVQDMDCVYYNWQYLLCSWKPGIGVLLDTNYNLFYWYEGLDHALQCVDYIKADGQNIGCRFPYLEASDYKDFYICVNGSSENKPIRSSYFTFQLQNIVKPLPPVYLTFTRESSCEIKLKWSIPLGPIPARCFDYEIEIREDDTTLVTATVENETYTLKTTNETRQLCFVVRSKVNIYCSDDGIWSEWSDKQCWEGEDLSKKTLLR


Legend:
[1] = biological target: T1, IL-13Rα1; test: SPR, equilibrium; column KD (eq)
[2] = biological target: T2, IL-13Rα2; test: SPR, equilibrium; column KD (eq)

Row | binding [1] | binding [2] | Binder
1 | binds | – | C4 (ligand) cytokine: PGPVPPSTAVRELIEELVNITQNQKAPLCNGSMVWSINLTAGMYCAALESLINVSGCSAIEKTQRMLSGFCPHKVSAGQFSSLHVRDTRIEVAQFVKDLLNHLKELFTEGQFN
2 | – | binds | B4 (ligand) cytokine: PGPVPPSTALSELIEELINITQNQKAPLCNGSMVWSINLTAGMYCAALESLINVSGCSAIEKTQRMLSGFCPHKVSAGQFSSLHVKGSMIEVAQFVKDLLYHLRTLFREGQFN
3 | binds | – | C3 (ligand) cytokine: PGPVPPSTAARELIEELVNITQNQKAPLCNGSMVWSINLTAGMYCAALESLINVSGCSAIEKTQRMLSGFCPHKVSAGQFSSLHVTGKRIEVAQFVKDLLNHLRALFKEGQFN
